Patent publication US20250042956
Construct, isoform or probe ends are uncertain for at least one entry. At least one result comes from cells or an extract, where the contact may be indirect. Protein sequences can lack the tags named with them.

What was measured:
Assay in all cases: binding assay
Settings in all cases: ChIP-seq peak motif enrichment (Homer), sequences similar to TTTAGGG; in vivo; protein in cells
[1] = biological target: T1, TRB3 (Arabidopsis thaliana) (UniProt Q9M2X3)
T1 sequence: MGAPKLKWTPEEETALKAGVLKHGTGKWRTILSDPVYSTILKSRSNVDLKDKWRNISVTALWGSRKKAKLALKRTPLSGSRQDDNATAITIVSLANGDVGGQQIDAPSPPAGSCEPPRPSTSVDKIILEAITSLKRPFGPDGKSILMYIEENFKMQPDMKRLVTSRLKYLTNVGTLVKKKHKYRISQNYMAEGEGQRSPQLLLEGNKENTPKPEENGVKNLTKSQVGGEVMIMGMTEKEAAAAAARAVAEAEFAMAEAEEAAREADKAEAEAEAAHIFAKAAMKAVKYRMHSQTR

[2] = biological target: T2, TRB1 (Arabidopsis thaliana) (UniProt Q8VWK4)
T2 sequence: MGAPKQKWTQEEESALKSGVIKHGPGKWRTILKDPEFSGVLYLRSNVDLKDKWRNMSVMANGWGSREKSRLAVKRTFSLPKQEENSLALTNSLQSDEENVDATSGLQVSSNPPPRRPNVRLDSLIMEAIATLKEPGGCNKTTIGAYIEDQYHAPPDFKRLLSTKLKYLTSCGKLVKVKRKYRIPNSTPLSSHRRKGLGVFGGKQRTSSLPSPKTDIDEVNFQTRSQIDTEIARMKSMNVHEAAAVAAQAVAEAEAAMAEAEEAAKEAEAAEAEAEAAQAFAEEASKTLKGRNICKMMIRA

[3] = biological target: T3, TRB2 (Arabidopsis thaliana) (UniProt Q9FJW5)
T3 sequence: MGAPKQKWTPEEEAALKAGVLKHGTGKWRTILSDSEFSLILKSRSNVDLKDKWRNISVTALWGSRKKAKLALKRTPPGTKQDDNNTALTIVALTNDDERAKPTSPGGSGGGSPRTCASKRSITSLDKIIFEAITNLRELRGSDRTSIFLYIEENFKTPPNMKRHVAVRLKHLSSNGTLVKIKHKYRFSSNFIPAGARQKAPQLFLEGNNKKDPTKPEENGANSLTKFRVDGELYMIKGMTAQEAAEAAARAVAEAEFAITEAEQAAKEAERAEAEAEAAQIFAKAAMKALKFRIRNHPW

Measured: binding result

TTTAGGG (double strand) [telobox / telomere repeat motif]
binds: [1] | [2] | [3]
